Reference: paper PMC5412259
No constants are given. Whether binding was seen depends on the method and setting. Binding seen in cells or lysates may run through a third protein. Some binding calls cover weakened binding; strength is not graded here. One block for each molecule: values may come before it.

Experiments:
[1] = target: T1, toll-like receptor 4 (TLR4) (rat (endogenous in NR8383)) (UniProt Q9QX05); experiment: co-IP; NR8383 cells stimulated by LPS or HMGB1, with or without increasing concentrations of glycyrrhizin (GL) for 12 h; lysed in 1x RIPA buffer; lysates incubated overnight at 4°C with 5 μg/ml anti-RAGE or anti-TLR4 monoclonal antibody on protein A agarose beads; western blotting
T1 sequence: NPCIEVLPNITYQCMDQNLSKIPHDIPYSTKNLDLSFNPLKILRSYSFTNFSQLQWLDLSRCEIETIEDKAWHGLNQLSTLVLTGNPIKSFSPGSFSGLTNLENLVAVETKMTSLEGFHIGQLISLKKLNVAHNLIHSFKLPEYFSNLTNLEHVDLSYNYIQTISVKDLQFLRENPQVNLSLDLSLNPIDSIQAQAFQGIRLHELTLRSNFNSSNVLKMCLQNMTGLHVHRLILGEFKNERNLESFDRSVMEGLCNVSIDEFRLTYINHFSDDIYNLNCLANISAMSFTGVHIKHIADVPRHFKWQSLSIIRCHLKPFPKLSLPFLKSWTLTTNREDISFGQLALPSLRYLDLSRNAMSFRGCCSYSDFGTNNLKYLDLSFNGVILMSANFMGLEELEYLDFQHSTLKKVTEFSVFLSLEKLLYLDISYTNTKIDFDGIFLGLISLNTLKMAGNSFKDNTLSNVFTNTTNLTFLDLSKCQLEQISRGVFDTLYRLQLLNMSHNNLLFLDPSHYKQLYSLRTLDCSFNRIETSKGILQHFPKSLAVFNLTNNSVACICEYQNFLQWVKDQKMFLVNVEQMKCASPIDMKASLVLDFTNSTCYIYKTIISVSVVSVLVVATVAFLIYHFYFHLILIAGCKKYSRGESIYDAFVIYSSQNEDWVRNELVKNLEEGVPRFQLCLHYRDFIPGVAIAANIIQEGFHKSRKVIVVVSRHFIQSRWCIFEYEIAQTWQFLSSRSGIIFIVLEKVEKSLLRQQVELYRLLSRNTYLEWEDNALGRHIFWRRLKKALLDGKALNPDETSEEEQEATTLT

[2] = target: T2, receptor for advanced glycation end products (RAGE) (rat (endogenous in NR8383)), Q63495; experiment: as above; settings: remark: other sources report otherwise
T2 chain: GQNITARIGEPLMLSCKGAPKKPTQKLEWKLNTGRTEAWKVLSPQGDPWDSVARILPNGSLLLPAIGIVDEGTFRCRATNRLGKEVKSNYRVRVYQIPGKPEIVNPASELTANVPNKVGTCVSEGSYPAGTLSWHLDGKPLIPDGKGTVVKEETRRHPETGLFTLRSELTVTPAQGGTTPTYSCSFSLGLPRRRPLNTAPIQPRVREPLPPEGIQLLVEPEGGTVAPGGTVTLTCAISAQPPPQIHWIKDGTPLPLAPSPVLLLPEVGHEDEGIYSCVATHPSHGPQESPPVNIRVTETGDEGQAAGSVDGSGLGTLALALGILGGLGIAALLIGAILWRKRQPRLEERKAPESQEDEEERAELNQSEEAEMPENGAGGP

- binding [1]: binds
Molecule: high mobility group box-1 protein (HMGB1) (from UniProt P63159 1-215)

- binding [2]: binds
B1: high mobility group box-1 protein (HMGB1), P63159 1-215 (protein)
chain: MGKGDPKKPRGKMSSYAFFVQTCREEHKKKHPDASVNFSEFSKKCSERWKTMSAKEKGKFEDMAKADKARYEREMKTYIPPKGETKKKFKDPNAPKRPPSAFFLFCSEYRPKIKGEHPGLSIGDVAKKLGEMWNNTAADDKQPYEKKAAKLKEKYEKDIAAYRAKGKPDAAKKGVVKAEKSKKKKEEEDDEEDEEDEEEEEEEEDEDEEEDDDDE
